# The list shows a part of the results. Most entries show no effect beyond the scatter of the controls.
# Protein sequences, listed by entry. Tags and fused reporters are not part of them. Lines headed by an entry give the natural chain unless they say otherwise; changes in a name come on top.
# UniProt Q01650: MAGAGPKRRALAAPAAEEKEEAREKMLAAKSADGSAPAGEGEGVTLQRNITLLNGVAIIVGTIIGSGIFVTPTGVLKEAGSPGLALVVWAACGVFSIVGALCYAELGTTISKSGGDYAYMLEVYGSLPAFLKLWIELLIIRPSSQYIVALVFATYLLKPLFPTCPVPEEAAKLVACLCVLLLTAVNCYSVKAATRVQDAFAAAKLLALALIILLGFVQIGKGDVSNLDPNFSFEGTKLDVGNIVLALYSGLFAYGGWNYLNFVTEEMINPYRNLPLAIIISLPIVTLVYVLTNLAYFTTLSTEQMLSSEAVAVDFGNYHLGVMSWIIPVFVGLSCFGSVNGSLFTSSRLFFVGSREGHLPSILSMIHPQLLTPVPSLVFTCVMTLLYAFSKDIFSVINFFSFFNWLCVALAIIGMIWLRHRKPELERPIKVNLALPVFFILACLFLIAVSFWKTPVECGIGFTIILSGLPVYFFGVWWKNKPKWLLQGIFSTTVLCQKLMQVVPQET
# UniProt Q07864, whole entry: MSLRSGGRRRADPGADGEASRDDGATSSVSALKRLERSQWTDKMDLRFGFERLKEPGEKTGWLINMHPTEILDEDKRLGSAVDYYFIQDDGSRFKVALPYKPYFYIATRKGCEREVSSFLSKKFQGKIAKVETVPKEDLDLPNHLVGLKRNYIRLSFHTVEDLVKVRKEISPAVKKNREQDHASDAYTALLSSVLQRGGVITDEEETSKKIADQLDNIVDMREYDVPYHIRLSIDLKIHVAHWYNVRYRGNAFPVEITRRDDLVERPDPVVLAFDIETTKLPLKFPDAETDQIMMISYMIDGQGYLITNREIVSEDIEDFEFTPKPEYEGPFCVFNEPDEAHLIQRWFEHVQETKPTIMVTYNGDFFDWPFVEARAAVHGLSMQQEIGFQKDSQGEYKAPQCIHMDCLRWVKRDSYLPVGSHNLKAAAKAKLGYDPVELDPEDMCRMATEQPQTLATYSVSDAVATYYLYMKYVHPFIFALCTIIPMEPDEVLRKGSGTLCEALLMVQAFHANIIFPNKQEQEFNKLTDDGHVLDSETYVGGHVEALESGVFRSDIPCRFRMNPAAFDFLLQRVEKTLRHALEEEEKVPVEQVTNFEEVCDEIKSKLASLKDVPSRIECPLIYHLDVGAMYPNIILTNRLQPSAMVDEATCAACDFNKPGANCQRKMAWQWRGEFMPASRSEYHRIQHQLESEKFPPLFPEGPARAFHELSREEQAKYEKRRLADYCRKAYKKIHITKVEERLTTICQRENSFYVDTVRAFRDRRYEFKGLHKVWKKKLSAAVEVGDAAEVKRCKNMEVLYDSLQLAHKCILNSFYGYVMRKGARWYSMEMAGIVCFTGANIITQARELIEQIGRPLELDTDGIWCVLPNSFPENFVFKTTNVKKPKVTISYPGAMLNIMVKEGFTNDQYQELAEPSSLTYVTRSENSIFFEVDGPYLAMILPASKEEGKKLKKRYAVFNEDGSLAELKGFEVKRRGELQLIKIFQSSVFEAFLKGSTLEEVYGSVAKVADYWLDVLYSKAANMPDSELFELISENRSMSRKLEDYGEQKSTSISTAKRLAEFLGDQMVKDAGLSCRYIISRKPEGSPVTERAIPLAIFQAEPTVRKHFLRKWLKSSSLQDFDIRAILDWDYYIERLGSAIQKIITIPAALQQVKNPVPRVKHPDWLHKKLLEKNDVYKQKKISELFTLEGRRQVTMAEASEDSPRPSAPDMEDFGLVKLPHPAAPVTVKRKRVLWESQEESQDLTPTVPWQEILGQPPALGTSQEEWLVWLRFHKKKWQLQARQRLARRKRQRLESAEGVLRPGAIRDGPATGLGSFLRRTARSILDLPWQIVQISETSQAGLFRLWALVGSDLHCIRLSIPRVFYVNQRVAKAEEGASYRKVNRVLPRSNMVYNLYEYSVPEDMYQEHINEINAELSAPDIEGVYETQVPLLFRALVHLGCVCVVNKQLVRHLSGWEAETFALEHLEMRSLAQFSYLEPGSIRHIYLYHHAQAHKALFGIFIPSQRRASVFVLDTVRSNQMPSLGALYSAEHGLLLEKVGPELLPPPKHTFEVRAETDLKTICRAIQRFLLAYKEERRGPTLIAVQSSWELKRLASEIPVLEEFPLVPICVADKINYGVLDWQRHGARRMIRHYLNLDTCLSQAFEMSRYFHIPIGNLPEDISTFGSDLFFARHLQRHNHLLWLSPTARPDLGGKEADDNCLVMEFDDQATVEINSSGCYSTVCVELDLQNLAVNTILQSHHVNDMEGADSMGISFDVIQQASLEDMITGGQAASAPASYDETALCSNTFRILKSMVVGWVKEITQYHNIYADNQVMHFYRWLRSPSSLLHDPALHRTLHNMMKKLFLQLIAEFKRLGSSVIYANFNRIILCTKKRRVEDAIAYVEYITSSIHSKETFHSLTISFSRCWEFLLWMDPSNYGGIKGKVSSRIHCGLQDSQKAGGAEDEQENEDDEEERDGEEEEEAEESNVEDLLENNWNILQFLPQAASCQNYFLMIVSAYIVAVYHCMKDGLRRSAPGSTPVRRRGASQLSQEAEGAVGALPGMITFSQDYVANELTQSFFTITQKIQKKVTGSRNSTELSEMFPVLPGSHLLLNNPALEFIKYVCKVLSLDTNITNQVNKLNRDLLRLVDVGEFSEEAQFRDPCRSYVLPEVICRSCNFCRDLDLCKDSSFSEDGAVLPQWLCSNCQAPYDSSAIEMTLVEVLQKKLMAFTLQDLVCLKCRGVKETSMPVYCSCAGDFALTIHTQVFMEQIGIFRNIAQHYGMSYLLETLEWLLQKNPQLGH
# UniProt Q13111, whole entry: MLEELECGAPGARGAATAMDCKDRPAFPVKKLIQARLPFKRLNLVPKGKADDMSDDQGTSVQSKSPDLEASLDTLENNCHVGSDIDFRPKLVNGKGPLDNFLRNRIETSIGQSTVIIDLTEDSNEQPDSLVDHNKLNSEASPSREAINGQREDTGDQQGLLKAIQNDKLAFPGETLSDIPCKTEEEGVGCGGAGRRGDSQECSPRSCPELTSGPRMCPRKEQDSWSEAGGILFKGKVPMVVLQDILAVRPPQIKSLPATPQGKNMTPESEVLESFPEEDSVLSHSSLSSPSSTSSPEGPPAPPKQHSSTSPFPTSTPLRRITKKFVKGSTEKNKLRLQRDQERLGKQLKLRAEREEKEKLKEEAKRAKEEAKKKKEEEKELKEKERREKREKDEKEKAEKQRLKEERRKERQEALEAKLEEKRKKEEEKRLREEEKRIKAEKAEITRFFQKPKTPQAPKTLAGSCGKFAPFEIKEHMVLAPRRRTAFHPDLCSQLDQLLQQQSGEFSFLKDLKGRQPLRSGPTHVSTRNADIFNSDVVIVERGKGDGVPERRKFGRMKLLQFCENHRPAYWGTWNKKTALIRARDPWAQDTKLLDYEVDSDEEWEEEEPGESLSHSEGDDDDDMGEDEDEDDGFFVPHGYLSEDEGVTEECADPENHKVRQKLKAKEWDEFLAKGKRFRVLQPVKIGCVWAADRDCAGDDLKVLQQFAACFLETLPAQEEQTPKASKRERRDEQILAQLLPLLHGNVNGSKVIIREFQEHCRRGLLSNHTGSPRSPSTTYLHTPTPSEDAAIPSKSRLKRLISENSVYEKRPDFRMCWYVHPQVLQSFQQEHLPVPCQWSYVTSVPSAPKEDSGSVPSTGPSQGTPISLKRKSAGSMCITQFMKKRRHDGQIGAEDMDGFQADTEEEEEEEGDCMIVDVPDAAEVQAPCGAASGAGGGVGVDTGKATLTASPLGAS
# UniProt Q02078: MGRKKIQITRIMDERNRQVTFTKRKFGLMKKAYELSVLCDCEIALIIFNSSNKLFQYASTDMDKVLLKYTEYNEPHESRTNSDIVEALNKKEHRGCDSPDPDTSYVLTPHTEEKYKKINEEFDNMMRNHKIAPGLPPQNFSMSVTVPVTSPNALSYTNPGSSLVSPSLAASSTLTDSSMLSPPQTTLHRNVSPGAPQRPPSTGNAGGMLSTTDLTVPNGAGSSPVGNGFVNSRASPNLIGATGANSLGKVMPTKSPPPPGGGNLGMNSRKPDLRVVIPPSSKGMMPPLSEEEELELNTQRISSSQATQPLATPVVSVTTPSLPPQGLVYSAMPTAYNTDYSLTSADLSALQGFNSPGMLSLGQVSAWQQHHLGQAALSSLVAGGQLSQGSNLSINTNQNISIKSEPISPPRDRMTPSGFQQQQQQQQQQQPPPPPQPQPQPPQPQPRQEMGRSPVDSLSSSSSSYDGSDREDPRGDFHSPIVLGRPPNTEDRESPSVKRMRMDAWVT
# UniProt Q13042, whole entry: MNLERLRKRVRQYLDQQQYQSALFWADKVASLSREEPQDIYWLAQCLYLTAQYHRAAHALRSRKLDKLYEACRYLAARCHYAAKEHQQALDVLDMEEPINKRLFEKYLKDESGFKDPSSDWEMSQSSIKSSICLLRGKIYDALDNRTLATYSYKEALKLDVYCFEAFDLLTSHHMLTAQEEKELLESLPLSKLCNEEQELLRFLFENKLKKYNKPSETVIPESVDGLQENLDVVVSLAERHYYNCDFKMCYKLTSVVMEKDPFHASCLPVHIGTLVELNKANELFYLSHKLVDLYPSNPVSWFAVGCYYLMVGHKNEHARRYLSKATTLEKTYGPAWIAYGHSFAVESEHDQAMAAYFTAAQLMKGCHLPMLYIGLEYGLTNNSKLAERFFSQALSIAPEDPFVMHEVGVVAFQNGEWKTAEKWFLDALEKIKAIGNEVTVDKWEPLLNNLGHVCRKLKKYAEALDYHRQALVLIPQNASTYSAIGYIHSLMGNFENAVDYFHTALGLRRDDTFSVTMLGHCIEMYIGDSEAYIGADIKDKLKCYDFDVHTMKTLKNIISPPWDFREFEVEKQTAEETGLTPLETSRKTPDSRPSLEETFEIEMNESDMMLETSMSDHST
# UniProt Q01780: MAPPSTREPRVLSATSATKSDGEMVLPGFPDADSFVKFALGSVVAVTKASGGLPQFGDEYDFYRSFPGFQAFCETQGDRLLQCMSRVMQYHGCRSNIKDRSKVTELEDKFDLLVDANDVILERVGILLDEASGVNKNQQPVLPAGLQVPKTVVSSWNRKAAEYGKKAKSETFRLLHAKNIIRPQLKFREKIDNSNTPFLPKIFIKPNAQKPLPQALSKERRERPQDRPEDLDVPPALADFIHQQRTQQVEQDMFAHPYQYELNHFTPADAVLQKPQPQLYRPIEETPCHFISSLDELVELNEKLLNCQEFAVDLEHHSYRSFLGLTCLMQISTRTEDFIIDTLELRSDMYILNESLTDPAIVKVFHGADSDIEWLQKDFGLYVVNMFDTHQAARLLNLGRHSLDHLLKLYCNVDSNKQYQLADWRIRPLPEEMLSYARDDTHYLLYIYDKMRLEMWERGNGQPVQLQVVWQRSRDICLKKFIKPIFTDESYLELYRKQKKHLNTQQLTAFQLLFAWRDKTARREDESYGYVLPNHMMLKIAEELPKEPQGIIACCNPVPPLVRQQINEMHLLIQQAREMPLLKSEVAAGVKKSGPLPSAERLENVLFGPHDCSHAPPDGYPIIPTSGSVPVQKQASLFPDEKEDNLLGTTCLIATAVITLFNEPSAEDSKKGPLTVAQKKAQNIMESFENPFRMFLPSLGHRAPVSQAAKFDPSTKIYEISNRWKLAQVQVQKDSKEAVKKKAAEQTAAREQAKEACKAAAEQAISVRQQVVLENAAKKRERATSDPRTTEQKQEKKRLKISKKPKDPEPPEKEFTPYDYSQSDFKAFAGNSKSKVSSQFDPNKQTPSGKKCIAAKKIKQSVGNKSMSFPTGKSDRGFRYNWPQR
# UniProt Q12904: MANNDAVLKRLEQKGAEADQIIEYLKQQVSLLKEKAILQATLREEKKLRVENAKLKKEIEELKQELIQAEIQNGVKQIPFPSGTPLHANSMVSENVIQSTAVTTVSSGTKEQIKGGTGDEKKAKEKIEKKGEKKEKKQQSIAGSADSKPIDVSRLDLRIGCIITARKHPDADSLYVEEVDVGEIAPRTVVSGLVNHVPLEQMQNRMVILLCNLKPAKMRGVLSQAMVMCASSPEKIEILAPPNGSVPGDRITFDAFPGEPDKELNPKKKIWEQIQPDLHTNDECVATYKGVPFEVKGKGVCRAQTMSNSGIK
# UniProt Q02790: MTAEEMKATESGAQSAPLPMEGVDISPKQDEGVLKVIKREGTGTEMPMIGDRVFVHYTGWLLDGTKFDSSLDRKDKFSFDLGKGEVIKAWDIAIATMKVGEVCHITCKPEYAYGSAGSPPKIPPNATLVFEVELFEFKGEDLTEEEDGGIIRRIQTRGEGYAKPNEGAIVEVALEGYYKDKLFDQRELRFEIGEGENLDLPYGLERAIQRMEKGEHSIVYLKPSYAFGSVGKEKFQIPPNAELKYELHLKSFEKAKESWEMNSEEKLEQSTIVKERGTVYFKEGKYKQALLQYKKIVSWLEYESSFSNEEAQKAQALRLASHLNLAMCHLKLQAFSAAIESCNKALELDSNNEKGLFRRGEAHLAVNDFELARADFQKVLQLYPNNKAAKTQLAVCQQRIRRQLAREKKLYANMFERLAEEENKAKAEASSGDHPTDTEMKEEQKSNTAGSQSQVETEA
# Compound: CN[C@@H]1C[C@H]2O[C@@](C)([C@@H]1OC)n1c3ccccc3c3c4c(c5c6ccccc6n2c5c31)C(=O)NC4 [staurosporine]
# Assay: log2 fold change of tryptic peptide abundance, ligand vs vehicle (limited proteolysis) (log2 ratio); higher = more trypsin-susceptible (destabilized)
# Conditions: ligand concentration: 20 uM; sample: K562 cleared lysate; digestion: 4 min, 22 C (HT-PELSA RT4min, Orbitrap Astral)
row,Target,log2 fold change
1,"FOXO4 (peptide sequence: KKPSVLPAPPEGATPTSPVGHFAK, peptide start residue: 214) (UniProt P98177)",0.965
2,"SLC7A5 (peptide sequence: ALAAPAAEEKEEAREK, peptide start residue: 10) (UniProt Q01650)",0.146
3,"DSC2 (peptide sequence: NGGQETIEMVK, peptide start residue: 778) (UniProt Q02487)",-0.123
4,"REEP5 (peptide sequence: AKETADAITK, peptide start residue: 163) (UniProt Q00765)",0.302
5,"PITPNA (peptide sequence: MLAPEGALNIHEK, peptide start residue: 74) (UniProt Q00169)",-0.206
6,"KIF1A (peptide sequence: KTDFIPYR, peptide start residue: 300) (UniProt Q12756)",0.505
7,"MGAT5 (peptide sequence: NTDFFIGKPTLR, peptide start residue: 547) (UniProt Q09328)",0.287
8,"ARHGAP1 (peptide sequence: ETVAYLQAHALTTEGIFRR, peptide start residue: 265) (UniProt Q07960)",0.661
9,"POLE (peptide sequence: ALFGIFIPSQR, peptide start residue: 1498) (UniProt Q07864)",-0.204
10,"LMNB2 (peptide sequence: EQEMTEMR, peptide start residue: 357) (UniProt Q03252)",0.44
11,"PTH1 (peptide sequence: LTEEELR, peptide start residue: 256) (UniProt Q03431)",0.019
12,"CDC42EP1 (peptide sequence: SDSLLSFR, peptide start residue: 190) (UniProt Q00587)",0.342
13,"Q6ZWR4 (peptide sequence: DVTLEASR, peptide start residue: 382) (UniProt Q00005)",-0.18
14,"CHAF1A (peptide sequence: EDSGSVPSTGPSQGTPISLK, peptide start residue: 851) (UniProt Q13111)",-0.724
15,"MEF2A (peptide sequence: YTEYNEPHESR, peptide start residue: 69) (UniProt Q02078)",0.145
16,"SSBP1 (peptide sequence: NPVTIFSLATNEMWR, peptide start residue: 52) (UniProt Q04837)",-0.43
17,"DLG1 (peptide sequence: NLSEIENVHGFVSHSHISPIK, peptide start residue: 141) (UniProt Q12959)",-0.398
18,"CDC16 (peptide sequence: ELLESLPLSK, peptide start residue: 183) (UniProt Q13042)",-0.439
19,"UniProt Q12974 (peptide sequence: YGVTTLVR, peptide start residue: 37)",-0.108
20,"UBE3A (peptide sequence: DEDKDEDEKEK, peptide start residue: 185) (UniProt Q05086)",-0.671

row,Target,log2 fold change
1,"UniProt Q00056 (peptide sequence: DHKLPNTK, peptide start residue: 220)",0.246
2,"GOLGA2 (peptide sequence: ERPGLGSNPCIPFFYR, peptide start residue: 975) (UniProt Q08379)",0.292
3,"RBL2 (peptide sequence: ICPENHSALLR, peptide start residue: 1117) (UniProt Q08999)",-0.354
4,"GOLGA3 (peptide sequence: SQGTSAEGSVR, peptide start residue: 107) (UniProt Q08378)",-0.449
5,"EXOSC10 (peptide sequence: KAQNIMESFENPFR, peptide start residue: 680) (UniProt Q01780)",-0.21
6,"MPP1 (peptide sequence: FETVHQIHK, peptide start residue: 363) (UniProt Q00013)",0.458
7,"SPTBN1 (peptide sequence: EKLTGLHK, peptide start residue: 1353) (UniProt Q01082)",0.58
8,"DNM1 (peptide sequence: CVDMVISELISTVR, peptide start residue: 427) (UniProt Q05193)",-0.81
9,"UniProt Q0PNE2 (peptide sequence: DQSFTYQYK, peptide start residue: 240)",0.0818
10,"RLF (peptide sequence: TSDISSPIGSHREEQEGR, peptide start residue: 1268) (UniProt Q13129)",0.843
11,"HNRNPU (peptide sequence: SSSPVNVK, peptide start residue: 2) (UniProt Q00839)",-0.167
12,"UniProt Q12904 (peptide sequence: ANNDAVLK, peptide start residue: 2)",-0.475
13,"TRAF3 (peptide sequence: VTELESVDKSAGQVAR, peptide start residue: 361) (UniProt Q13114)",-0.717
14,"C13ORF37 (peptide sequence: ILNTGLDMETLSICVR, peptide start residue: 34) (UniProt Q08AG7)",-0.213
15,"TBL3 (peptide sequence: RDPEACEKLEATMLR, peptide start residue: 691) (UniProt Q12788)",0.286
16,"UniProt P85299 (peptide sequence: SSPAPHSGPCPSR, peptide start residue: 309)",0.951
17,"NEXN (peptide sequence: LTFEELER, peptide start residue: 249) (UniProt Q0ZGT2)",0.373
18,"HSF1 (peptide sequence: RKIPLMLNDSGSAHSMPK, peptide start residue: 207) (UniProt Q00613)",0.445
19,"FKBP4 (peptide sequence: AEASSGDHPTDTEMK, peptide start residue: 427) (UniProt Q02790)",-0.194
20,"SREBF2 (peptide sequence: AVLLAEAAR, peptide start residue: 1103) (UniProt Q12772)",-0.333

# Taken from the results shown for reference:
row,Target,log2 fold change
11,"PTH1 (peptide sequence: LTEEELR, peptide start residue: 256) (UniProt Q03431)",0.019
12,"CDC42EP1 (peptide sequence: SDSLLSFR, peptide start residue: 190) (UniProt Q00587)",0.342
13,"Q6ZWR4 (peptide sequence: DVTLEASR, peptide start residue: 382) (UniProt Q00005)",-0.18
14,"CHAF1A (peptide sequence: EDSGSVPSTGPSQGTPISLK, peptide start residue: 851) (UniProt Q13111)",-0.724
15,"MEF2A (peptide sequence: YTEYNEPHESR, peptide start residue: 69) (UniProt Q02078)",0.145
16,"SSBP1 (peptide sequence: NPVTIFSLATNEMWR, peptide start residue: 52) (UniProt Q04837)",-0.43
17,"DLG1 (peptide sequence: NLSEIENVHGFVSHSHISPIK, peptide start residue: 141) (UniProt Q12959)",-0.398
18,"CDC16 (peptide sequence: ELLESLPLSK, peptide start residue: 183) (UniProt Q13042)",-0.439
19,"UniProt Q12974 (peptide sequence: YGVTTLVR, peptide start residue: 37)",-0.108
20,"UBE3A (peptide sequence: DEDKDEDEKEK, peptide start residue: 185) (UniProt Q05086)",-0.671

# From the supplement of paper PMC12819154, “High-throughput peptide-centric local stability assay extends protein–ligand identification to membrane proteins, tissues and bacteria” (Nature Structural & Molecular Biology, 2025)
